This experiment concerns the target T1, α subunit of human NAD-dependent isocitrate dehydrogenase (IDH3) (human), P50213.
T1 chain: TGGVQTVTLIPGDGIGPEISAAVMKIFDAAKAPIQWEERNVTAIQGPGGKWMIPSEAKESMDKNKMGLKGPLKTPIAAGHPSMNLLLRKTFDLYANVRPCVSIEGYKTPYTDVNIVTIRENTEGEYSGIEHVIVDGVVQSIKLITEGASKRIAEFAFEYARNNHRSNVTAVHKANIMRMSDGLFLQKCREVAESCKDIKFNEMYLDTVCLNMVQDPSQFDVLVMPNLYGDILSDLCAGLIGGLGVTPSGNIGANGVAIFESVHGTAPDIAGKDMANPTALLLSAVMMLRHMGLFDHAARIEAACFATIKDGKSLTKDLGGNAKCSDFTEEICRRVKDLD
Put plainly: crystal structure. To be noted: remark: other sources report otherwise.

These are yes or no findings as the source states them, for the method shown. Some entries that bind do so weakly or less than the wild type.

B1: α subunit of human NAD-dependent isocitrate dehydrogenase (IDH3) (natural protein)
chain: T1 chain
Take B1: the binding result is reported as “binds”.

Source of the values: paper doi:10.1101/2020.06.25.170399 (bioRxiv, 2020).
